The values below come from paper doi:10.1101/244152.

Amino acid sequences for entries named in this document (tags omitted).
UniProt Q92560: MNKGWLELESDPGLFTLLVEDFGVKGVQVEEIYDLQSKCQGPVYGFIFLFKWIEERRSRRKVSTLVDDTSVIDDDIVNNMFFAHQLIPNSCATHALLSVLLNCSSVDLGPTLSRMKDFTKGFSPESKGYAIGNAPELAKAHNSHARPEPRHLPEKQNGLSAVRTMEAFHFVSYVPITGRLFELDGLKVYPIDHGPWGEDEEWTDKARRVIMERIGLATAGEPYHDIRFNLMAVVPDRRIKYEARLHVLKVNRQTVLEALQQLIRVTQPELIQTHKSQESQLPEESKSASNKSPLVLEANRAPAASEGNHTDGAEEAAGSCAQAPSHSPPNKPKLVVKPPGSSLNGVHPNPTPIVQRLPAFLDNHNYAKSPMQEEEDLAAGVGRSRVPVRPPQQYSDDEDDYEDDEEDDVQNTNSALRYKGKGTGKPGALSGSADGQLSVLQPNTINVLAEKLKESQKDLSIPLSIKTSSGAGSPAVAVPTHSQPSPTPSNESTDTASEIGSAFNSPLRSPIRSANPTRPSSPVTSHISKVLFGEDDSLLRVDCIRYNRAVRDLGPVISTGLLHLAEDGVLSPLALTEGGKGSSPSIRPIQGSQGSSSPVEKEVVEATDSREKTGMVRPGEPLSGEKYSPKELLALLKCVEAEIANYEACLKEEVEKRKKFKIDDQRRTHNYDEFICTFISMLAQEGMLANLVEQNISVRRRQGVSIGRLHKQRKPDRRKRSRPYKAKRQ
UniProt Q76L83: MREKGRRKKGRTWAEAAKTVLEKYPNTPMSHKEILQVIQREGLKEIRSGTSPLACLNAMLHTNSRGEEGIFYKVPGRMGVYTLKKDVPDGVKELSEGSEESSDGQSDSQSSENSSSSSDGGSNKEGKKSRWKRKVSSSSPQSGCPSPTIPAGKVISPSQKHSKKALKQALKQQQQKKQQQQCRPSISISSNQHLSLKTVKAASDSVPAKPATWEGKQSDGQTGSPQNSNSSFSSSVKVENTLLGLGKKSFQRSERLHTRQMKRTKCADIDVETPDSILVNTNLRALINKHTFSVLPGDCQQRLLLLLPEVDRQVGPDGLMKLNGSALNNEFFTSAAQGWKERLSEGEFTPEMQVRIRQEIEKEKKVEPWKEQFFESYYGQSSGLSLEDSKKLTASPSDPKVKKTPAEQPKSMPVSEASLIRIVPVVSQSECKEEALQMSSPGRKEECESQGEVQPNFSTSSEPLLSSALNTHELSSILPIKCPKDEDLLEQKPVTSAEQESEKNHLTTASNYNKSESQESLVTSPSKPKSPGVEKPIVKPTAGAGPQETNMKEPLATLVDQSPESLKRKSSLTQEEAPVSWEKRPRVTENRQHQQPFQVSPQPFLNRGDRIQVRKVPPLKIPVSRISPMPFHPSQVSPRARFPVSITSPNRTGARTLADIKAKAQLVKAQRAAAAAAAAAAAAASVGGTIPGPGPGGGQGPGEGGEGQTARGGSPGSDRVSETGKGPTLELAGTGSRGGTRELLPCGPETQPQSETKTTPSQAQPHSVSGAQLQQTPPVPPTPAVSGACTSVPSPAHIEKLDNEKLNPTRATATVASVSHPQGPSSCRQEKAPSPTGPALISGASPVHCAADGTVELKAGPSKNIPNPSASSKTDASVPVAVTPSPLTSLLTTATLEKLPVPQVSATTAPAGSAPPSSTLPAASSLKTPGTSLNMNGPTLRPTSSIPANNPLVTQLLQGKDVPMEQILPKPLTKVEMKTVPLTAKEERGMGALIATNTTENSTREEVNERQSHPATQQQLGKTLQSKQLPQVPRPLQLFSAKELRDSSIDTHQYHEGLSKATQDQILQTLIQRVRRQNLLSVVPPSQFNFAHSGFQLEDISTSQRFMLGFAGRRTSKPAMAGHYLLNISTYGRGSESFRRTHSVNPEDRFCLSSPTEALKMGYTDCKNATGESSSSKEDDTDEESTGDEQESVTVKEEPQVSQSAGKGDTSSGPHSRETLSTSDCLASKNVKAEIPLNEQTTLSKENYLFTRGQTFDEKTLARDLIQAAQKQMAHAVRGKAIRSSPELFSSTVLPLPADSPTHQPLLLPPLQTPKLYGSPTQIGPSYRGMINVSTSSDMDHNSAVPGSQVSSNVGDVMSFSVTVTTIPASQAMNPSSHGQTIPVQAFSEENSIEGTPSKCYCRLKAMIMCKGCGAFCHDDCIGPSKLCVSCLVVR
UniProt Q9BZ95: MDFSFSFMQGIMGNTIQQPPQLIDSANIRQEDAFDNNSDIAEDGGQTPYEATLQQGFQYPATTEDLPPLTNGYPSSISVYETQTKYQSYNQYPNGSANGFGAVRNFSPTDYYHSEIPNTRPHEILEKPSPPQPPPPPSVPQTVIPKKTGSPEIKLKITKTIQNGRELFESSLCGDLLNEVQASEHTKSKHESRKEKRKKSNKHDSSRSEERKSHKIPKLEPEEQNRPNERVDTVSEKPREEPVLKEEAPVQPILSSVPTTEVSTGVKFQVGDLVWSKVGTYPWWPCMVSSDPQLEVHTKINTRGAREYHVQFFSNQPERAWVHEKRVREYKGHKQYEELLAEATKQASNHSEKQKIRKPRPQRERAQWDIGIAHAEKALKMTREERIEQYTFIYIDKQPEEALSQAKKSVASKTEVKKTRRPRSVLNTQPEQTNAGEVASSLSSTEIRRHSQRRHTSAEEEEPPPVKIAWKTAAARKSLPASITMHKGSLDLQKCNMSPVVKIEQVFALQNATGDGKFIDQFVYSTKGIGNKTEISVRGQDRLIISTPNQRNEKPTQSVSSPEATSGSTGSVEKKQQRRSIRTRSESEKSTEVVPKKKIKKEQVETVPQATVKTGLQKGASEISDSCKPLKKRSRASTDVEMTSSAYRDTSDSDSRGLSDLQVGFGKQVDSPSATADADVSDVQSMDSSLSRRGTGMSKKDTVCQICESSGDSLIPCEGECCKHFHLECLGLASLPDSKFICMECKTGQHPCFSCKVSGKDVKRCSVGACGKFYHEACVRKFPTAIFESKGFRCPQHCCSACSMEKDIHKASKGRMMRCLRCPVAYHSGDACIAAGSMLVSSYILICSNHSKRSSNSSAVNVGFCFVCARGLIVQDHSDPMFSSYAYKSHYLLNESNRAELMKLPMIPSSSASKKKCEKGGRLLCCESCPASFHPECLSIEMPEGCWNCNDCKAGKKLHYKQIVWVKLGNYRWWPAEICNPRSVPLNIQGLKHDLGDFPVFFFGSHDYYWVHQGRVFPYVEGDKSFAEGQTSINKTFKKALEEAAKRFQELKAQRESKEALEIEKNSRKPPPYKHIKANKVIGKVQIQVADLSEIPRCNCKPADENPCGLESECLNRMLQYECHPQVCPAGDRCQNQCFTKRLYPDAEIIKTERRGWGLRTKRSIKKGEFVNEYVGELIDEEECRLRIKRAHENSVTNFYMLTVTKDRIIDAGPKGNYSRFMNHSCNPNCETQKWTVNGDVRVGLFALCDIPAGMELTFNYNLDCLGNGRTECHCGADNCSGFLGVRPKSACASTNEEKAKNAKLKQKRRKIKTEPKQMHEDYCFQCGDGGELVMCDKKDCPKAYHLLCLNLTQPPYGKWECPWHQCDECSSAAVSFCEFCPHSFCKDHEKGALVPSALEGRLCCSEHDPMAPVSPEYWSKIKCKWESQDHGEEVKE

These are yes or no findings as the source states them, for the method shown. In cells and extracts the contact can be indirect. These calls come from enrichment with a bait or labelling near it, and not all partners need be listed. For some of these results: Sequences can lack the tags named with a protein.

Experiment in all cases: affinity purification with mass spectrometry
The target in assay [1] is T1, 2xFlag-2xHA-tagged KDM1B stably expressed in HeLa-S3 cells (UniProt Q8NB78).
T1 sequence: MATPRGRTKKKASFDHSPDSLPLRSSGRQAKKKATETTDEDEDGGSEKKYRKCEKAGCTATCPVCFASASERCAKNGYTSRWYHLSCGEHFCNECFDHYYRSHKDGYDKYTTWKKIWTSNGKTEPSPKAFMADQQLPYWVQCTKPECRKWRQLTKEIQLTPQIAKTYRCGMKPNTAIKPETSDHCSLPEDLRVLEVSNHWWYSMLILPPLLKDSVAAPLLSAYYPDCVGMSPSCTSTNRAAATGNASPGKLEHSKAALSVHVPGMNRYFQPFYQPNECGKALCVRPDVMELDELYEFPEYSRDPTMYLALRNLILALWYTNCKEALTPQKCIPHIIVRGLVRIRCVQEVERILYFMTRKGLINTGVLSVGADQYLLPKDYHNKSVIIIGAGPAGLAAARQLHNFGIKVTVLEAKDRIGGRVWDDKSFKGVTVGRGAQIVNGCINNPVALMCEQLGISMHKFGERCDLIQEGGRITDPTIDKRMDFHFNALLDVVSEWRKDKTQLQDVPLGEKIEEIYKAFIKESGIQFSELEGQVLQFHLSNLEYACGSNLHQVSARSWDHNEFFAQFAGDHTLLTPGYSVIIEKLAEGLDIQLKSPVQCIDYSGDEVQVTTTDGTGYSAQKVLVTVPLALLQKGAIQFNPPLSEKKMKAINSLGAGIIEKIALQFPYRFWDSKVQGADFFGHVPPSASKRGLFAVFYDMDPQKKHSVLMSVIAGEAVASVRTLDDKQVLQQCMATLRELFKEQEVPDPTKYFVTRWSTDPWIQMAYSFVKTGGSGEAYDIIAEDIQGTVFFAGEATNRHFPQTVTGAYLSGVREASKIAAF

Assay [2] has as its target 2xFlag-2xHA-tagged BAP1 (BRCA1 Associated Protein 1) stably expressed in HeLa-S3 cells (UniProt Q92560).
The target of assay [3] is 2xFlag-2xHA-tagged ASXL2 stably expressed in HeLa-S3 cells (UniProt Q76L83).

With NSD3 (from UniProt Q9BZ95 1-1437), the binding result in assay [1] was “binds”.
The same measure, in the same setting: under ASXL2 (from UniProt Q76L83 1-1435) stands “binds”.

B1: MBD5 (protein, UniProt Q9P267 1-1494)
chain: MNGGKECDGGDKEGGLPAIQVPVGWQRRVDQNGVLYVSPSGSLLSCLEQVKTYLLTDGTCKCGLECPLILPKVFNFDPGAAVKQRTAEDVKADEDVTKLCIHKRKIIAVATLHKSMEAPHPSLVLTSPGGGTNATPVVPSRAATPRSVRNKSHEGITNSVMPECKNPFKLMIGSSNAMGRLYVQELPGSQQQELHPVYPRQRLGSSEHGQKSPFRGSHGGLPSPASSGSQIYGDGSISPRTDPLGSPDVFTRSNPGFHGAPNSSPIHLNRTPLSPPSVMLHGSPVQSSCAMAGRTNIPLSPTLTTKSPVMKKPMCNFSTNMEIPRAMFHHKPPQGPPPPPPPSCALQKKPLTSEKDPLGILDPIPSKPVNQNPVIINPTSFHSNVHSQVPMMNVSMPPAVVPLPSNLPLPTVKPGHMNHGSHVQRVQHSASTSLSPSPVTSPVHMMGTGIGRIEASPQRSRSSSTSSDHGNFMMPPVGPQATSSGIKVPPRSPRSTIGSPRPSMPSSPSTKSDGHHQYKDIPNPLIAGISNVLNTPSSAAFPTASAGSSSVKSQPGLLGMPLNQILNQHNAASFPASSLLSAAAKAQLANQNKLAGNNSSSSSNSGAVAGSGNTEGHSTLNTMFPPTANMLLPTGEGQSGRAALRDKLMSQQKDALRKRKQPPTTVLSLLRQSQMDSSAVPKPGPDLLRKQGQGSFPISSMSQLLQSMSCQSSHLSSNSTPGCGASNTALPCSANQLHFTDPSMNSSVLQNIPLRGEAVHCHNANTNFVHSNSPVPNHHLAGLINQIQASGNCGMLSQSGMALGNSLHPNPPQSRISTSSTPVIPNSIVSSYNQTSSEAGGSGPSSSIAIAGTNHPAITKTTSVLQDGVIVTTAAGNPLQSQLPIGSDFPFVGQEHALHFPSNSTSNNHLPHPLNPSLLSSLPISLPVNQQHLLNQNLLNILQPSAGEGDMSSINNTLSNHQLTHLQSLLNNNQMFPPNQQQQQLLQGYQNLQAFQGQSTIPCPANNNPMACLFQNFQVRMQEDAALLNKRISTQPGLTALPENPNTTLPPFQDTPCELQPRIDPSLGQQVKDGLVVGGPGDASVDAIYKAVVDAASKGMQVVITTAVNSTTQISPIPALSAMSAFTASIGDPLNLSSAVSAVIHGRNMGGVDHDGRLRNSRGARLPKNLDHGKNVNEGDGFEYFKSASCHTSKKQWDGEQSPRGERNRWKYEEFLDHPGHIHSSPCHERPNNVSTLPFLPGEQHPILLPPRNCPGDKILEENFRYNNYKRTMMSFKERLENTVERCAHINGNRPRQSRGFGELLSTAKQDLVLEEQSPSSSNSLENSLVKDYIHYNGDFNAKSVNGCVPSPSDAKSISSEDDLRNPDSPSSNELIHYRPRTFNVGDLVWGQIKGLTSWPGKLVREDDVHNSCQQSPEEGKVEPEKLKTLTEGLEAYSRVRKRNRKSGKLNNHLEAAIHEAMSELDKMSGTVHQIPQGDRQMRPPKPKRRKISR
For B1, the binding entry in assay [2] was “binds”.

B2: KDM1B (protein, UniProt Q8NB78 1-822)
chain: T1 sequence
Take B2: the binding result in assay [3] was “binds”.
